From the supplement of paper PMC12823440, “Inhibitors supercharge kinase turnover through native proteolytic circuits” (Nature, 2025)
Structures can show the parent of a compound that is named as a salt. The list shows a part of the results. Hit calls seldom repeat between salt and free forms of one compound.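 Kinases, fused to nanoluciferase, were expressed in K562 cells; luminescence was measured every 4 h from 2 to 18 h as percent of control (DMSO = 100%, positive control = 0%). A time point is decreased if signal falls significantly (2 sigma). Hits were called by the authors by a rule that is not shown; the count of time points alone does not decide it.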

Protein sequences, listed by entry. Tags and fused reporters are not part of them. Lines headed by an entry give the natural chain unless they say otherwise; changes in a name come on top.
UniProt P50613: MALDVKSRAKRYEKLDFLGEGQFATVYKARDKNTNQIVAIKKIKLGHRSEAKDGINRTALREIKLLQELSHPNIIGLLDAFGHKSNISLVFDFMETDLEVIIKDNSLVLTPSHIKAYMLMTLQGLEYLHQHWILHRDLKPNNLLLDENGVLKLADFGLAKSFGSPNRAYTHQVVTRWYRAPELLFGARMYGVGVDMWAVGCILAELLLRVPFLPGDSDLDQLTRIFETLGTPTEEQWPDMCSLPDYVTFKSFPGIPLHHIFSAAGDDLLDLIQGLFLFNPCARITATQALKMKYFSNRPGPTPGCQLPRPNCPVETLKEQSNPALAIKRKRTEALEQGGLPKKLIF
UniProt P50750, whole entry: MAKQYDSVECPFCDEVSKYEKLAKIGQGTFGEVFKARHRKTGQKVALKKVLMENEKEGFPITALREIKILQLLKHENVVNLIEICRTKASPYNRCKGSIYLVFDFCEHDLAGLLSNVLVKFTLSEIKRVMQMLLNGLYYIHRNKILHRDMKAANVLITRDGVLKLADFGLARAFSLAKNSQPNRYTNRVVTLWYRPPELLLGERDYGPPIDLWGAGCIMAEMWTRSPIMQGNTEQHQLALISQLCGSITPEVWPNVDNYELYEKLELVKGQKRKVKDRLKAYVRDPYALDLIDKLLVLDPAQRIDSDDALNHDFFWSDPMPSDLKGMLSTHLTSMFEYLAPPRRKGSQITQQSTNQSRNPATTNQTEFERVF
UniProt O96017, whole entry: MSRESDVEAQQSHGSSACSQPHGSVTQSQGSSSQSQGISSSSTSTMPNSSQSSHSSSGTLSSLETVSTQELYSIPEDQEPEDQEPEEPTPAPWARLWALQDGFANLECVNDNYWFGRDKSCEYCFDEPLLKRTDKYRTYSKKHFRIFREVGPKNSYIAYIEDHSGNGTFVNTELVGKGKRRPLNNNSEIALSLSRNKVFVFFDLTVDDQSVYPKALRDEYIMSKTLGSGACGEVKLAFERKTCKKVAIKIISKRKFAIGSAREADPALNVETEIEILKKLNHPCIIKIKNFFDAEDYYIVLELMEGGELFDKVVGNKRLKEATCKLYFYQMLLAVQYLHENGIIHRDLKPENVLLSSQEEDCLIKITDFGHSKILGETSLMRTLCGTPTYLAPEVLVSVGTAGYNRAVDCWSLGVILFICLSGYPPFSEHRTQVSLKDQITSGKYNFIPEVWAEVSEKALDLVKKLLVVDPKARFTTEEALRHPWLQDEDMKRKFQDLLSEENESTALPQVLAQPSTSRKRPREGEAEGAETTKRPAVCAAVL
UniProt P07333, whole entry: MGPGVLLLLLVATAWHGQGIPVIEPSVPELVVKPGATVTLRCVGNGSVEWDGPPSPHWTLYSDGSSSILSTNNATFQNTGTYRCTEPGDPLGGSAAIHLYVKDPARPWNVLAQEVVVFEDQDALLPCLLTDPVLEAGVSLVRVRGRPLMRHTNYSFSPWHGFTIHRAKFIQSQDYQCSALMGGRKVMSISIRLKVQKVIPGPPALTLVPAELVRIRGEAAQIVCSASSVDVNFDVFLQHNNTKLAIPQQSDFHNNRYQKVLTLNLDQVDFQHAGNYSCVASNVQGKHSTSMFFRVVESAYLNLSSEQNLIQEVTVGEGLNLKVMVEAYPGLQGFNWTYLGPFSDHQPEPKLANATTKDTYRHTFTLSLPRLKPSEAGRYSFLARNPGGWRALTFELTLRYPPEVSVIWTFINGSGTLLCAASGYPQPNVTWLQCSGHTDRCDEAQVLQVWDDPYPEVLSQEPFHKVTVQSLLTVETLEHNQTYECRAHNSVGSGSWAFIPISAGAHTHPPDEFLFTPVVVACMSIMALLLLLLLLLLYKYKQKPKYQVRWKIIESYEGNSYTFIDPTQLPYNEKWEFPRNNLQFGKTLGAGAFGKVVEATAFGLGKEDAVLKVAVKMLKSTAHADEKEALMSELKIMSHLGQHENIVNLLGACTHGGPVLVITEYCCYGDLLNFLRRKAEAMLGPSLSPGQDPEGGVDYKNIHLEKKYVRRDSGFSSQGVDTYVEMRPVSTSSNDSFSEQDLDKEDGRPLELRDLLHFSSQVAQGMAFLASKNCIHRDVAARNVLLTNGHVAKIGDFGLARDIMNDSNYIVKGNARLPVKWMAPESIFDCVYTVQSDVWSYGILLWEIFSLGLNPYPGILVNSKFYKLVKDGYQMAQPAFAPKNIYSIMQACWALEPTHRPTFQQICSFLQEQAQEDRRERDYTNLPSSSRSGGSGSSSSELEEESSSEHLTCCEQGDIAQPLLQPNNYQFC
UniProt P41240: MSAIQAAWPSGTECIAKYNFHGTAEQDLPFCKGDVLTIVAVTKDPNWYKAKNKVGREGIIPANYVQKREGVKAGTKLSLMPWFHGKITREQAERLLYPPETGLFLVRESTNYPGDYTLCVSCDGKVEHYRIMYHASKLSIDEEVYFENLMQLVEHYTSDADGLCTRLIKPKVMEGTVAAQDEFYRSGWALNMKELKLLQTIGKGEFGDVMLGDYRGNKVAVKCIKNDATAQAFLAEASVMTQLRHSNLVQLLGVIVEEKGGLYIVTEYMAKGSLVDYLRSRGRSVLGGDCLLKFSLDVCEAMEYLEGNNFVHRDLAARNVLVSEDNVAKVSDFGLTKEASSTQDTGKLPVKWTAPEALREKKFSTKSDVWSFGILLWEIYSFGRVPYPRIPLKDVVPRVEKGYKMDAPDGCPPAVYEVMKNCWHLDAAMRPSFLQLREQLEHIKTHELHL
UniProt P48729: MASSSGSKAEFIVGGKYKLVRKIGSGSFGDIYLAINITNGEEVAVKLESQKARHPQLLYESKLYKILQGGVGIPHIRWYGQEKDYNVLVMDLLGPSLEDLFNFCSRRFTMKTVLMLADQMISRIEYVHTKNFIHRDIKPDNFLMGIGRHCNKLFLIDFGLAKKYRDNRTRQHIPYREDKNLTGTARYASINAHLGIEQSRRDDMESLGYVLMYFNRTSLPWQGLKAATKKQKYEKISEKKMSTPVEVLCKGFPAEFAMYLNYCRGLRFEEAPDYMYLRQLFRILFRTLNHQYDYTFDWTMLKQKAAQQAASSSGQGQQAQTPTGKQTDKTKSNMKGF
UniProt P48730: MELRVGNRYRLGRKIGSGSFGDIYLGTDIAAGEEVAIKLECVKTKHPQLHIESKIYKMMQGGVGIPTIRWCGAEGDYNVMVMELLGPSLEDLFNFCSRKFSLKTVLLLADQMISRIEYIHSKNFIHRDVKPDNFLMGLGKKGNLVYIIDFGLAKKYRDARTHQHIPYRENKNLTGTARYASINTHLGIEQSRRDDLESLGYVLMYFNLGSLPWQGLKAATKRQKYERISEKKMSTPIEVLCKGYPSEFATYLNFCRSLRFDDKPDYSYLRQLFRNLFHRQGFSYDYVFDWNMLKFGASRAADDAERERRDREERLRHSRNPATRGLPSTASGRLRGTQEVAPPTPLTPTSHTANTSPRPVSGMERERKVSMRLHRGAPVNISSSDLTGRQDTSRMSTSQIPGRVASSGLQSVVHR
UniProt Q08345: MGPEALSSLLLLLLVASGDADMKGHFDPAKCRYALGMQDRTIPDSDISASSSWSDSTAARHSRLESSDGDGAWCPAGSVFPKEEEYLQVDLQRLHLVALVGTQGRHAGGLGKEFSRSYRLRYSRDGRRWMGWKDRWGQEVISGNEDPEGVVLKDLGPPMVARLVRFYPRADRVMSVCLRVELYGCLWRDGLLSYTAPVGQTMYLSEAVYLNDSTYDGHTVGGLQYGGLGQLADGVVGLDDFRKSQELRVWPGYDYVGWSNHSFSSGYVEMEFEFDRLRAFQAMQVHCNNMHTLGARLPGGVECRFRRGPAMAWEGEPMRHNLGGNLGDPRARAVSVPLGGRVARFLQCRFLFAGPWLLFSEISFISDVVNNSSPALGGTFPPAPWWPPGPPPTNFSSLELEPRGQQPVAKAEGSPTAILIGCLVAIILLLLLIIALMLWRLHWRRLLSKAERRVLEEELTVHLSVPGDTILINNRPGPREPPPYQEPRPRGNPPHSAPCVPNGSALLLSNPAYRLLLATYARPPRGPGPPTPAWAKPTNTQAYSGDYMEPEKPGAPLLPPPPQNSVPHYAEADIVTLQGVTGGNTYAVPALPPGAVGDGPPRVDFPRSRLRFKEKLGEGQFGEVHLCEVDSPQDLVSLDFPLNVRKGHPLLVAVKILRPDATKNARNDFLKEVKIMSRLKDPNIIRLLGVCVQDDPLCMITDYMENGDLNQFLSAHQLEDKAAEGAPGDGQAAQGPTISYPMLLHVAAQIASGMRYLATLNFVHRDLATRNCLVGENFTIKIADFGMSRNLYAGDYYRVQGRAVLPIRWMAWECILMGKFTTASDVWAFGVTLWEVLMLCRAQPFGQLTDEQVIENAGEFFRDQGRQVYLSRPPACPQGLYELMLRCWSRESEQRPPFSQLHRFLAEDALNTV
UniProt Q9Y463, whole entry, looked up: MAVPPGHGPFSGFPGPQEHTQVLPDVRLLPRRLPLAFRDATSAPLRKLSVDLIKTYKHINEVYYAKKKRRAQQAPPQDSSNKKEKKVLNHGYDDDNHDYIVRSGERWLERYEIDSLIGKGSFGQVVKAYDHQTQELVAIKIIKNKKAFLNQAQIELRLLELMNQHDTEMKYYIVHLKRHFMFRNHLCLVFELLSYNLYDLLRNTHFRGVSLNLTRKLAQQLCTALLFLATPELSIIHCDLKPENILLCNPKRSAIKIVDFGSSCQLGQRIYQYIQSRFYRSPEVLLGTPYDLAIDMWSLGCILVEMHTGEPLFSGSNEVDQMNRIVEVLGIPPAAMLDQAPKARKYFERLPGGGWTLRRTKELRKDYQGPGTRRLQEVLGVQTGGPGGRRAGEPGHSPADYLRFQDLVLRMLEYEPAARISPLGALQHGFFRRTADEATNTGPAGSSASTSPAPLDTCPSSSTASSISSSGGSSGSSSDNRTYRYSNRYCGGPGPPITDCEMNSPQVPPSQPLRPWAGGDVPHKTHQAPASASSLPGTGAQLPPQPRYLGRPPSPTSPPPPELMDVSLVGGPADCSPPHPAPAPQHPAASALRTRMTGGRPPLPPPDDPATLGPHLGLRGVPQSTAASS
UniProt Q92630: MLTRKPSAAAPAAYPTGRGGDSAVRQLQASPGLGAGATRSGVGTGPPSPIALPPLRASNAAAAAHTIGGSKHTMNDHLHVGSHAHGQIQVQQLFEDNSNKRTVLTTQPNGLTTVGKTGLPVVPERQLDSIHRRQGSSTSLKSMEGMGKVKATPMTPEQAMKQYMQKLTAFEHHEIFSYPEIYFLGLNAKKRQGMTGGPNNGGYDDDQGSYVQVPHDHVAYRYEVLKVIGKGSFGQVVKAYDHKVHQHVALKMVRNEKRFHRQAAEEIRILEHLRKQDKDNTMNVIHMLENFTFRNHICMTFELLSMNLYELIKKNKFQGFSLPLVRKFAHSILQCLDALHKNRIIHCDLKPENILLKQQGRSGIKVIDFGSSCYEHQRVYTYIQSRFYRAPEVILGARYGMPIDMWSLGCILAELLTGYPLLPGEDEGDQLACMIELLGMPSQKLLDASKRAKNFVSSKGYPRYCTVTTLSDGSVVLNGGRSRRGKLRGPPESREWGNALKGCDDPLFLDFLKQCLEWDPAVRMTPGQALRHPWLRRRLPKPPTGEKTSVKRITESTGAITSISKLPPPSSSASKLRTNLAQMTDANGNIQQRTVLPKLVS

Tests used:
Assay in all cases: kinase-Nluc reporter destabilization hit call (1 = scored as downregulated) (binary); higher = compound decreases kinase abundance
Settings in all cases: K562; 2-18 h
CDK7 = CDK7 (UniProt P50613)
CDK9 = CDK9 (UniProt P50750)
CHEK2 = CHEK2 (UniProt O96017)
CSF1R = CSF1R (UniProt P07333)
CSK = CSK (UniProt P41240)
CSNK1A1 = CSNK1A1 (UniProt P48729)
CSNK1D = CSNK1D (UniProt P48730)
DDR1 = DDR1 (UniProt Q08345)
DYRK1B = DYRK1B (UniProt Q9Y463)
DYRK2 = DYRK2 (UniProt Q92630)

| SMILES | kinase-Nluc reporter destabilization hit call (CDK7) | kinase-Nluc reporter destabilization hit call (CDK9) | kinase-Nluc reporter destabilization hit call (CHEK2) | kinase-Nluc reporter destabilization hit call (CSF1R) | kinase-Nluc reporter destabilization hit call (CSK) | kinase-Nluc reporter destabilization hit call (CSNK1A1) | kinase-Nluc reporter destabilization hit call (CSNK1D) | kinase-Nluc reporter destabilization hit call (DDR1) | kinase-Nluc reporter destabilization hit call (DYRK1B) | kinase-Nluc reporter destabilization hit call (DYRK2) |
| --- | --- | --- | --- | --- | --- | --- | --- | --- | --- | --- |
| Nc1ncnc2c1c(-c1ccc(Oc3ccccc3)cc1)nn2C1CCNCC1 [N-piperidine Ibrutinib (hydrochloride)] (10 µM) | inactive: 0 | inactive: 0 | inactive: 0 | inactive: 0 | inactive: 0 | inactive: 0 | inactive: 0 | inactive: 0 | inactive: 0 | inactive: 0 |
| Cc1ccc(-c2c(C(=O)CCl)n(CCCO)c3ncnc(N)c23)cc1 (10 µM) | inactive: 0 | inactive: 0 | inactive: 0 | active: 1 | inactive: 0 | inactive: 0 | inactive: 0 | inactive: 0 | inactive: 0 | inactive: 0 |
| c1cc2c(cc1O[C@H]1OC[C@H]3[C@@H]1CO[C@@H]3c1ccc3c(c1)OCO3)OCO2 [Sesamolin] (10 µM) | inactive: 0 | inactive: 0 | inactive: 0 | inactive: 0 | inactive: 0 | inactive: 0 | inactive: 0 | inactive: 0 | inactive: 0 | inactive: 0 |
| CC1=C2C(=O)O[C@@H](c3ccoc3)[C@]2(C)CCC1 [Fraxinellone] (10 µM) | inactive: 0 | inactive: 0 | inactive: 0 | inactive: 0 | inactive: 0 | inactive: 0 | inactive: 0 | inactive: 0 | inactive: 0 | inactive: 0 |
| O=C(O)c1cc(O)ccc1O [2,5-Dihydroxybenzoic acid] (10 µM) | inactive: 0 | inactive: 0 | inactive: 0 | inactive: 0 | inactive: 0 | inactive: 0 | inactive: 0 | inactive: 0 | inactive: 0 | inactive: 0 |
| CC(C)(C)c1ccc(S(=O)(=O)Nc2ccc(-n3ccnc3)cc2)cc1 (10 µM) | inactive: 0 | inactive: 0 | inactive: 0 | inactive: 0 | inactive: 0 | inactive: 0 | inactive: 0 | inactive: 0 | inactive: 0 | inactive: 0 |
| Cn1cc(-c2ccc(CNc3cc(-c4cnc5cc(OCCCN6CCCC6)ccn45)ncn3)cc2)cn1 (10 µM) | inactive: 0 | inactive: 0 | inactive: 0 | inactive: 0 | inactive: 0 | inactive: 0 | inactive: 0 | inactive: 0 | inactive: 0 | inactive: 0 |
| C=CC(=O)Nc1ccc(CN(C(=O)Nc2c(Cl)c(OC)cc(OC)c2Cl)c2cc(Nc3ccc(N4CCN(C)CC4)cc3)ncn2)cc1 (10 µM) | inactive: 0 | inactive: 0 | inactive: 0 | inactive: 0 | inactive: 0 | inactive: 0 | inactive: 0 | inactive: 0 | inactive: 0 | inactive: 0 |
| COc1cc(C(N)=O)nc(-c2cccc(C#C[C@]3(O)CCN(C)C3=O)c2)c1 (10 µM) | inactive: 0 | inactive: 0 | inactive: 0 | inactive: 0 | inactive: 0 | inactive: 0 | inactive: 0 | inactive: 0 | inactive: 0 | inactive: 0 |
| Cc1csc(-c2nnc(Nc3ccc(Oc4ncccc4-c4ccnc(N)n4)cc3)c3ccccc23)c1 (2.5 µM) | inactive: 0 | inactive: 0 | inactive: 0 | inactive: 0 | inactive: 0 | inactive: 0 | inactive: 0 | inactive: 0 | inactive: 0 | inactive: 0 |
| Nc1ncc(-c2cccc(N3CCNCC3)c2)cc1C(=O)Nc1ccncc1 [PKC-iota inhibitor 1] (10 µM) | inactive: 0 | inactive: 0 | inactive: 0 | inactive: 0 | inactive: 0 | inactive: 0 | inactive: 0 | inactive: 0 | inactive: 0 | inactive: 0 |
| N[C@H](Cc1c[nH]c2ccccc12)C(=O)N/N=C/c1ccc2nccnc2c1 [Rhosin (hydrochloride)] (10 µM) | inactive: 0 | inactive: 0 | inactive: 0 | inactive: 0 | inactive: 0 | inactive: 0 | inactive: 0 | inactive: 0 | inactive: 0 | inactive: 0 |
| CN1CCN(c2ccc(Nc3ncc4nc(Nc5ccccc5)n([C@@H]5CCN(S(=O)(=O)C6CC6)C5)c4n3)cc2)CC1 (2.5 µM) | inactive: 0 | inactive: 0 | inactive: 0 | inactive: 0 | inactive: 0 | inactive: 0 | inactive: 0 | inactive: 0 | inactive: 0 | inactive: 0 |
| COc1cc(F)c(F)c(Nc2ccc(I)cc2F)c1NS(=O)(=O)C1(C[C@H](O)CO)CC1 [Refametinib] (10 µM) | inactive: 0 | inactive: 0 | inactive: 0 | inactive: 0 | inactive: 0 | inactive: 0 | inactive: 0 | inactive: 0 | inactive: 0 | inactive: 0 |
| CCn1c(-c2nonc2N)nc2cnc(Oc3cccc(NC(=O)c4ccc(OCCN5CCOCC5)cc4)c3)cc21 (10 µM) | inactive: 0 | inactive: 0 | inactive: 0 | inactive: 0 | inactive: 0 | inactive: 0 | inactive: 0 | inactive: 0 | inactive: 0 | inactive: 0 |
| COc1cc(S(C)(=O)=O)ccc1Nc1nc2ccc(-c3ccc(NC(=O)[C@H](C)c4ccc(F)cc4)cc3)cn2n1 [Empesertib] (10 µM) | inactive: 0 | inactive: 0 | inactive: 0 | inactive: 0 | inactive: 0 | inactive: 0 | inactive: 0 | inactive: 0 | inactive: 0 | inactive: 0 |
| CC1CN(C(=O)Nc2ccc(Cl)c(Cl)c2)C(=Nc2ccc(F)cc2)S1 (stereo not given) (10 µM) | inactive: 0 | inactive: 0 | inactive: 0 | inactive: 0 | inactive: 0 | inactive: 0 | inactive: 0 | inactive: 0 | inactive: 0 | inactive: 0 |
| Cc1c(NC(=O)OC[C@@H]2COCCN2)cn2ncnc(Nc3ccc4c(cnn4Cc4cccc(F)c4)c3)c12 (10 µM) | inactive: 0 | inactive: 0 | inactive: 0 | inactive: 0 | inactive: 0 | inactive: 0 | inactive: 0 | inactive: 0 | inactive: 0 | inactive: 0 |

Reprinted from the entries so far for reference:

| SMILES | kinase-Nluc reporter destabilization hit call (CDK7) | kinase-Nluc reporter destabilization hit call (CDK9) | kinase-Nluc reporter destabilization hit call (CHEK2) | kinase-Nluc reporter destabilization hit call (CSF1R) | kinase-Nluc reporter destabilization hit call (CSK) | kinase-Nluc reporter destabilization hit call (CSNK1A1) | kinase-Nluc reporter destabilization hit call (CSNK1D) | kinase-Nluc reporter destabilization hit call (DDR1) | kinase-Nluc reporter destabilization hit call (DYRK1B) | kinase-Nluc reporter destabilization hit call (DYRK2) |
| --- | --- | --- | --- | --- | --- | --- | --- | --- | --- | --- |
| COc1cc(S(C)(=O)=O)ccc1Nc1nc2ccc(-c3ccc(NC(=O)[C@H](C)c4ccc(F)cc4)cc3)cn2n1 [Empesertib] (10 µM) | inactive: 0 | inactive: 0 | inactive: 0 | inactive: 0 | inactive: 0 | inactive: 0 | inactive: 0 | inactive: 0 | inactive: 0 | inactive: 0 |
| CC1CN(C(=O)Nc2ccc(Cl)c(Cl)c2)C(=Nc2ccc(F)cc2)S1 (stereo not given) (10 µM) | inactive: 0 | inactive: 0 | inactive: 0 | inactive: 0 | inactive: 0 | inactive: 0 | inactive: 0 | inactive: 0 | inactive: 0 | inactive: 0 |
